Test results as given in patent WO2017192589A1.

B1: 16.a.26 Fab (Fab, V domains shown)
VH: QVQLVQSGPEVKKPGASVKVSCKASGYSFSRYGISWVRQAPGQGLEWLGWISGYTGNTNYAQKFQGRVTMTTDTSTSTASMELRSLRSDDTAVYYCARDKKQGEVVLPAASFRWFAPWGQGTLVTVSS
VL: DIQMTQSPVSLSASVGDRVTITCRASQSIGKFLNWYQQKPGRAPKLLIYYASNLETGGPSRFSGRGSETEFSLTISSLQPEDFATYYCQQSNNVPHTFGQGTKLEIK
B2: 31.a.83 Fab (Fab, V domains shown)
VH: EVQLLESGGGLVQPGESLRVSCAASGFTFRDSALSWVRQAPGKGLEWVSAISGNGGATYYADTVKGRFTISRDNSQTTLYLQMNSLRADDTATYYCAKDESPPIYNLMPGYYSTYYYMDVWGKGTTVTVSS
VL: EIVMTPGPVTLSVSPGETATLSCRASQSVRSNLAWYQQKPGQAPRLLIYGASTRATDIPARFSGSGSGTEFTLSISSLQSDDFAVYYCQQYNHWLRTFGQGTKLEIK
B3: 56.a.09 Fab (Fab, V domains shown)
VH: QVQLQQSGPGLVKPSQTLSLTCVISGDTVSSNRAAWNWIRQSPSRGLEWLGRTYYRSKWYTDYAVSVKSRITITPDTSKNQFSLQMKSVTPEDTAVYYCARGSAMIFGIVIILESWGQGTLVTVSS
VL: LRDRRVDTVSLSLSPGERATLSCRASQSVASSYLAWYQQKPGQAPRLLIYGASSRATGVPDRFSGSGSGTDFILTISRLEPEDFAVYYCQQYDGSQYTFGQGTKLEIK

Assays:
[1] = biological target: hemagglutinin (HA) of A/Hong Kong/1-4-MA21-1/1968 (H3N2), HA0 (influenza A virus A/Hong Kong/1-4-MA21-1/1968 (H3N2)); experiment: X-ray co-crystal structure
[2] = biological target: hemagglutinin (HA) of A/Hong Kong/1-4-MA21-1/1968 (H3N2), HA0 (influenza A virus A/Hong Kong/1-4-MA21-1/1968 (H3N2)); experiment: negative stain EM

| Binder | binding [1] | binding [2] |
| --- | --- | --- |
| B1 | binds | – |
| B2 | binds | – |
| B3 | binds | binds |

These are yes or no findings as the source states them, for the method shown. Binding calls can cover weak binding; strength is not graded here.
